# Measured values as given in PubChem BioAssay AID2662 (National Center for Advancing Translational Sciences (NCATS), 2010).
# Protein sequences, listed by entry. Tags and fused reporters are not part of them.
# UniProt Q03164, whole entry, looked up: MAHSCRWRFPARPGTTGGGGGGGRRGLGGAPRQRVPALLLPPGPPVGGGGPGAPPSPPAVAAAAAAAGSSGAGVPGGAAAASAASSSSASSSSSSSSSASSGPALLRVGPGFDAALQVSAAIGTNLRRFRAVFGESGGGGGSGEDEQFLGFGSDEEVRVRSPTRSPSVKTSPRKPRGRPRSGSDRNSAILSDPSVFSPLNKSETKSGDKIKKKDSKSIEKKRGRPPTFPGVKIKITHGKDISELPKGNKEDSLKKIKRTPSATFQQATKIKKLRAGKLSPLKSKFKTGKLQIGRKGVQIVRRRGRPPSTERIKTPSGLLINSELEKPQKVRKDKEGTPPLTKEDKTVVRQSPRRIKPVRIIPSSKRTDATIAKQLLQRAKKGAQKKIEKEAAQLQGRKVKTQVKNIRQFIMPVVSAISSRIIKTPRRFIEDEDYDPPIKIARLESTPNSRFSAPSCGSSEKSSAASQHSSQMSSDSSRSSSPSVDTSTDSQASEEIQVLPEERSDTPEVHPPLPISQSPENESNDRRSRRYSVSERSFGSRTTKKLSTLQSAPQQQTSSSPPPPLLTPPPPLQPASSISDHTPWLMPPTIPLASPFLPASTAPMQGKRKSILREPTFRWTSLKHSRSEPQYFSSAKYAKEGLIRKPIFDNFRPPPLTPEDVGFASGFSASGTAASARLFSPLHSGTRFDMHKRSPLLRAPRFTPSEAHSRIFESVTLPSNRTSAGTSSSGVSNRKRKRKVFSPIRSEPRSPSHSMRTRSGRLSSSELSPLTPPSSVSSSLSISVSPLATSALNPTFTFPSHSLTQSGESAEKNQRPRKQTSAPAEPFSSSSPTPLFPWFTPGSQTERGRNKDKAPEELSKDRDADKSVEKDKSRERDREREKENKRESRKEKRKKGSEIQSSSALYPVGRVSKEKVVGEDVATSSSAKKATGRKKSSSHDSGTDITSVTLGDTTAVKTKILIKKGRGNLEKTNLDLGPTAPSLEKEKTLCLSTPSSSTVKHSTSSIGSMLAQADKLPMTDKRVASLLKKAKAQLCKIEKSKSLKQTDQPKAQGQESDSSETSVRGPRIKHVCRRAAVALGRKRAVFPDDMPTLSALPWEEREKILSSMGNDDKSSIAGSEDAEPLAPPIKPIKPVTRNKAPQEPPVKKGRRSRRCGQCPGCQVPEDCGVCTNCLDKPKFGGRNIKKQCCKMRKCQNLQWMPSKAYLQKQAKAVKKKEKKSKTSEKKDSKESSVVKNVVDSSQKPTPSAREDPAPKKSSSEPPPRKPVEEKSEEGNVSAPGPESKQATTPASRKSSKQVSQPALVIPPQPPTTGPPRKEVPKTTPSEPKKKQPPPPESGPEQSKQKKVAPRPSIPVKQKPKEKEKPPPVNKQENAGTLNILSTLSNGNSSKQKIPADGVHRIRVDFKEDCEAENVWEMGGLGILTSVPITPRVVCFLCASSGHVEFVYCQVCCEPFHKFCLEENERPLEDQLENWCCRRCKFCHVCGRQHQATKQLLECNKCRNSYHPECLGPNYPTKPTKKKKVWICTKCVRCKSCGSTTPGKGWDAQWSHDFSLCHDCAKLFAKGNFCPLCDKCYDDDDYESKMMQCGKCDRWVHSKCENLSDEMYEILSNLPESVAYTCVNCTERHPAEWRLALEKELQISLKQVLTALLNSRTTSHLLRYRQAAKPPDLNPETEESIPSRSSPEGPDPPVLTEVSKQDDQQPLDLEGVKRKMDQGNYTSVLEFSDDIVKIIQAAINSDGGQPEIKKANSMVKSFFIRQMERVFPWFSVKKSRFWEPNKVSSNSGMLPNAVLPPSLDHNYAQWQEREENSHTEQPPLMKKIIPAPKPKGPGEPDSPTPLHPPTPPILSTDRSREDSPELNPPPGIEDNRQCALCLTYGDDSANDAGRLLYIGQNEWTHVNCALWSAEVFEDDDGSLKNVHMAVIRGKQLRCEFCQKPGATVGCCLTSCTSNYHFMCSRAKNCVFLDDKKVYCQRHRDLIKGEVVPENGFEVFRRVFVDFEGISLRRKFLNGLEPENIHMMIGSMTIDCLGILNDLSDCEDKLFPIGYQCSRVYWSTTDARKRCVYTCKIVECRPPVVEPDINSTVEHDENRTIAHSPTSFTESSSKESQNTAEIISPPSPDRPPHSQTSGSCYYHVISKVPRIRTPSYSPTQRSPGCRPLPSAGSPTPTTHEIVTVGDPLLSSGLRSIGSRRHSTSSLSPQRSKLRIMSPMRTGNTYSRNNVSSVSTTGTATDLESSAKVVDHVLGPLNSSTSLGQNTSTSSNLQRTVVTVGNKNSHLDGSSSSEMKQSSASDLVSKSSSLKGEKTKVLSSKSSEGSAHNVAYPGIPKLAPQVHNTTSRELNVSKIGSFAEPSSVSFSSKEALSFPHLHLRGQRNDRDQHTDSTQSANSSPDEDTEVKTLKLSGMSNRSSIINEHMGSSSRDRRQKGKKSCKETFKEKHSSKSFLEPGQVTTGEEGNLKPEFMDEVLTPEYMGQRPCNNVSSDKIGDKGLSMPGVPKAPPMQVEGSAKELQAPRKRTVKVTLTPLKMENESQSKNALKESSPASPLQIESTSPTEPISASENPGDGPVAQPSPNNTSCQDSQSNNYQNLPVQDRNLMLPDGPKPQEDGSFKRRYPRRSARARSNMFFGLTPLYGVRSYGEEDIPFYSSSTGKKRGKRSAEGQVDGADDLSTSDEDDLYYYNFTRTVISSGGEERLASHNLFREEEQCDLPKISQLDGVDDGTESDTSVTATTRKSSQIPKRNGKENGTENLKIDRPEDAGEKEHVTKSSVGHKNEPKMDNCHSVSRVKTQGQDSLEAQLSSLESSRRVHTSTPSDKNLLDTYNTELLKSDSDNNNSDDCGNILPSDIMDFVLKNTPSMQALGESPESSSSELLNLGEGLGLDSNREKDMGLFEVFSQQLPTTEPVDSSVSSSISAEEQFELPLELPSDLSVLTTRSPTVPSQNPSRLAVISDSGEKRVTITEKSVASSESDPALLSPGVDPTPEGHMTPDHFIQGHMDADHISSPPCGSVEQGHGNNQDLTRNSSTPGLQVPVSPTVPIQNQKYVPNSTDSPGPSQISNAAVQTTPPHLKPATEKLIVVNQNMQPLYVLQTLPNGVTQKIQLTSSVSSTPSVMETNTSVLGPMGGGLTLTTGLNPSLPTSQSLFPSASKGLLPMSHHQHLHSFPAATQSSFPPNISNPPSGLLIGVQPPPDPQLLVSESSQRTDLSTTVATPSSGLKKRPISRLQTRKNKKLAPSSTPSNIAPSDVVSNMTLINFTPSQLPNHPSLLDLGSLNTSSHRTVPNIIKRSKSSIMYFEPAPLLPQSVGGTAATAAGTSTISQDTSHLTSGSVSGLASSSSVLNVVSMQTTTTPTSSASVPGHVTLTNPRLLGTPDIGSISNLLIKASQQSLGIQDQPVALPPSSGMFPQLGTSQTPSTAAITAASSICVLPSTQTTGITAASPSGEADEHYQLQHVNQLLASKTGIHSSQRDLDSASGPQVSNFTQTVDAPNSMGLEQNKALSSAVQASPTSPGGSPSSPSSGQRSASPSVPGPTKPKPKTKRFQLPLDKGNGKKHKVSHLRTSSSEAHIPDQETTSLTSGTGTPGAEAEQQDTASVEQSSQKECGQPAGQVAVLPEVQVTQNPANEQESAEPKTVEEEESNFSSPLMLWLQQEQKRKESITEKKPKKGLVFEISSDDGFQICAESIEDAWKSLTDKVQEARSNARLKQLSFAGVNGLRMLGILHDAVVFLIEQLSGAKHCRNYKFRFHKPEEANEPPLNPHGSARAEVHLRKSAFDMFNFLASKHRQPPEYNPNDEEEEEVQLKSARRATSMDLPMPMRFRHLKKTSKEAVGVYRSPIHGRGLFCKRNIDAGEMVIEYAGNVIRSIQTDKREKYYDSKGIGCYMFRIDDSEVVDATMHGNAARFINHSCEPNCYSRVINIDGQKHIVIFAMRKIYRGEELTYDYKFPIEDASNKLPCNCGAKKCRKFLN
# The whole screen tested about 290,000 compounds, of which about 110 (0.038%) were called active. Inconclusive results, whose numbers are uncertain, are shown with a selection of clear calls. The call rests on the fitted dose curve; in most records, active means well fitted inhibition curve with a large enough effect in the polarisation, with a control signal flat (not every such curve was filed as active); inconclusive means small, poorly fitted or top-dose-only effect, or effect the other way, or a change in a side signal; inactive means no such curve, though single readings can be large or run the other way; the % refers to the polarisation. Potencies beside an inconclusive call are fits to weak or partial responses and may not hold up. “Side channel” marks fits to a control or component signal instead of the main read-out.
# Target: Histone-lysine N-methyltransferase 2A (Homo sapiens) (UniProt Q03164)
# Test: qHTS Fluorescence Polarization Assay for Inhibitors of MLL CXXC domain - DNA interaction
# Conditions: MLL-CXXC / FITC-HOXA9 DNA fluorescence polarization; series mostly up to 115 µM
# Method in brief: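 Purified MLL-CXXC (added from a 7 uM solution) was preincubated 5 min at ambient with pinned compounds in 50 mM Tris-HCl pH 7.5, 50 mM NaCl, 1 mM DTT, 0.05% BSA. Fluorescein-labeled HOX-A9 DNA (50 nM solution) followed, 30 min, then polarization read.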
# Potency means the concentration at half of the fitted maximal effect.
row,Compound,Potency
1,Cc1ccc2nc(-c3cccc(Br)c3)cc(C(=O)NCC3CCCO3)c2c1 (configuration not stated),"inconclusive: 14.1 µM [fluorescent, side channel, single point]"
2,CN(C)CCN(CC1CCCN(Cc2ccccc2F)C1)C(=O)c1ccc(F)cc1 (configuration not stated),inactive
3,CCOC(=O)c1cc(-c2ccc(/C=C3/C(=O)NC(=O)C(C#N)=C3C)o2)ccc1Cl,"inconclusive: 35.5 µM [inhibitor, single point]"
4,COc1ccc(OC)c(NC(=O)CC2C(=O)NCCN2C(=O)c2ccccc2)c1 (configuration not stated),inactive
5,COc1ccc(-c2c(C(=O)O)c(C(=O)O)c3n2CCC3)cc1,"inconclusive: 39.8 µM [fluorescent, side channel, single point]"
6,CCOC(=O)CC1C(=O)NCCN1C(=O)c1ccc(C)cc1 (configuration not stated),"inconclusive: 89.1 µM [inhibitor, single point]"
7,CCN(CC)CCCNc1nc2ccccc2c2nc(-c3ccncc3)nn12,"inconclusive: 89.1 µM [inhibitor, single point]"
8,CC1CCCCC1NC(=O)C1CC(=O)N(Cc2ccccc2)C1 (configuration not stated),"inconclusive: 11.2 µM [fluorescent, side channel, single point]"
9,CC(C)(C)NC(=O)C(c1ccncc1)N(C(=O)c1csnn1)c1cccc2ccccc12 (configuration not stated),"inconclusive: 7.94 µM [fluorescent, side channel, single point]"
10,Cc1ccc2nc(-c3ccccn3)c(Nc3ccccc3C)n2c1,"inconclusive: 39.8 µM [quencher, side channel, single point]"
11,CCO[C@H]1OC(C(N)=O)=C[C@@H](c2ccc(Br)cc2)[C@@H]1CCCO,"inconclusive: 31.6 µM [inhibitor, single point]"
12,COc1cc(CNCCc2c[nH]c3ccccc23)ccc1OCc1ccccc1F,"inconclusive: 28.2 µM [quencher, side channel, partial curve]"
13,O=C(CN1CCCCC1)NC(=O)NCc1ccccc1,"inconclusive: 0.251 µM [fluorescent, side channel, full curve, poor fit]"
14,Cn1nc(C(F)(F)F)cc1-c1ccc(/C=C(\C#N)C(=O)c2cccc(C(F)(F)F)c2)s1,"inconclusive: 39.8 µM [fluorescent, side channel, single point]"
15,O=C(CN1CCCC1)Nc1ccc(-c2nc3cc(NC(=O)CN4CCCC4)ccc3o2)cc1,"inconclusive: 63.1 µM [inhibitor, single point]"
16,CC(C)(C)OC(=O)NCCCC[C@H](NC(=O)c1[nH]cnc1C(=O)Nc1ccc(Cl)cc1)C(=O)OC(C)(C)C,"inconclusive: 25.1 µM [inhibitor, partial curve]"
17,Cc1onc(-c2c(Cl)cccc2Cl)c1C(=O)N1CCOCC1,"inconclusive: 12.6 µM [inhibitor, single point]"
18,Cc1occc1C(=O)N1CCCC(Nc2ccc(C(C)C)cc2)C1 (configuration not stated),"inconclusive: 12.6 µM [fluorescent, side channel, single point]"
19,Cc1ncc([N+](=O)[O-])n1C[C@H](O)CCl,inactive
20,COc1ccc(-c2nn(-c3ccccc3)cc2C(=O)Nc2cccc(C(=O)O)c2)cc1[N+](=O)[O-],"inconclusive: 5.62 µM [inhibitor, partial curve]"
21,CCCN1C(=O)S/C(=C\c2ccc(N3CCOCC3)o2)C1=O,"inconclusive: 11.2 µM [fluorescent, side channel, full curve]"

row,Compound,Potency
1,Cc1cccc(NC(=O)Nc2ccncc2)c1,"inconclusive: 31.6 µM [inhibitor, partial curve]"
2,COc1ccc(/C=C/C(=O)Nc2ccncc2)cc1OC,inactive
3,O=C(NCCO)c1ccc2nc(-c3ccco3)c(-c3ccco3)nc2c1,"inconclusive: 89.1 µM [inhibitor, single point]"
4,CC1=CSC2=NS(=O)(=O)CCN12,"inconclusive: 100 µM [quencher, side channel, partial curve, poor fit]"
5,Cc1cc(OCC(=O)Nc2ccc(S(=O)(=O)NC3=NCCCCC3)cc2)c(C(C)C)cc1Cl,"inconclusive: 12.6 µM [quencher, side channel, single point]"
6,CCN1C(=O)c2cccc3c(NC(=O)c4ccc5c(c4)OCCO5)ccc1c23,"inconclusive: 22.4 µM [fluorescent, side channel, partial curve]"
7,CCN1CCC[C@H]1CNC(=O)c1c(O)c(Cl)cc(Cl)c1OC,"inconclusive: 35.5 µM [fluorescent, side channel, partial curve]"
8,COc1ccc(C(CNC(=O)CSc2ccccc2C)N(C)C)cc1 (configuration not stated),"inconclusive: 35.5 µM [fluorescent, side channel, partial curve]"
9,Cc1cc(C)cc(OCC(=O)Nc2nc(-c3cccnc3)cs2)c1,"inconclusive: 35.5 µM [fluorescent, side channel, single point]"
10,COCC(=O)N(Cc1cc2cc(OC)ccc2[nH]c1=O)c1ccc(C)cc1,inactive
11,Cc1cc[n+](-c2ccccc2)c2ccccc12,inactive
12,CC(C)C(=O)Nc1c(-c2ccc(Cl)cc2)c(=O)c2ccccc2n1C,"inconclusive: 3.16 µM [inhibitor, full curve]"
13,COc1ccc(S(=O)(=O)n2[nH]c(=O)c(CCO)c2C)cc1,"inconclusive: 7.08 µM [quencher, side channel, partial curve]"
14,COc1cc(/C=C2\SC(=S)N(Nc3ccccc3)C2=O)ccc1O,"inconclusive: 35.5 µM [fluorescent, side channel, single point]"
15,Cc1noc(/C=C/c2ccc(-c3ccccc3Cl)o2)c1[N+](=O)[O-],"inconclusive: 31.6 µM [fluorescent, partial curve]"
16,O=C(O)CC(=O)NC12CC3CC(CC(C3)C1)C2,inactive
17,CCCN(Cc1cc2cc(OC)ccc2[nH]c1=O)C(=O)c1ccco1,inactive
18,CCOC(=O)c1c(C)[nH]c(C(=O)N2CCC(C(=O)OCC)CC2)c1C,"inconclusive: 15.8 µM [fluorescent, side channel, single point]"
20,C=CCNC(=S)NCc1ccccc1OC,"inconclusive: 31.6 µM [fluorescent, side channel, single point]"
21,CC(C)c1cc(NC(=O)C(C)(C)C)cc(C(C)C)c1O,inactive

# An excerpt from above in order of SMILES length, rising.
row,Compound,Potency
20,C=CCNC(=S)NCc1ccccc1OC,"inconclusive: 31.6 µM [fluorescent, side channel, single point]"
4,CC1=CSC2=NS(=O)(=O)CCN12,"inconclusive: 100 µM [quencher, side channel, partial curve, poor fit]"
1,Cc1cccc(NC(=O)Nc2ccncc2)c1,"inconclusive: 31.6 µM [inhibitor, partial curve]"
11,Cc1cc[n+](-c2ccccc2)c2ccccc12,inactive
16,O=C(O)CC(=O)NC12CC3CC(CC(C3)C1)C2,inactive
21,CC(C)c1cc(NC(=O)C(C)(C)C)cc(C(C)C)c1O,inactive
8,COc1ccc(C(CNC(=O)CSc2ccccc2C)N(C)C)cc1 (configuration not stated),"inconclusive: 35.5 µM [fluorescent, side channel, partial curve]"
9,Cc1cc(C)cc(OCC(=O)Nc2nc(-c3cccnc3)cs2)c1,"inconclusive: 35.5 µM [fluorescent, side channel, single point]"
17,CCCN(Cc1cc2cc(OC)ccc2[nH]c1=O)C(=O)c1ccco1,inactive
3,O=C(NCCO)c1ccc2nc(-c3ccco3)c(-c3ccco3)nc2c1,"inconclusive: 89.1 µM [inhibitor, single point]"
12,CC(C)C(=O)Nc1c(-c2ccc(Cl)cc2)c(=O)c2ccccc2n1C,"inconclusive: 3.16 µM [inhibitor, full curve]"
18,CCOC(=O)c1c(C)[nH]c(C(=O)N2CCC(C(=O)OCC)CC2)c1C,"inconclusive: 15.8 µM [fluorescent, side channel, single point]"

# The list continues:

row,Compound,Potency
1,Cc1nc(N2CCN(c3ccccn3)CC2)c2c(C)c(C(=O)Nc3ccccc3F)sc2n1,inactive
2,COc1ccc(N2C(S)=C(C#N)C(=O)NC2c2ccc(OC)c(OC)c2)cc1 (configuration not stated),"inconclusive: 31.6 µM [inhibitor, partial curve]"
3,OC(CNCCc1ccc(Cl)cc1Cl)COc1ccccc1 (configuration not stated),"inconclusive: 31.6 µM [inhibitor, single point]"
4,Cc1ccccc1NC(=O)/C(C#N)=C\c1cn(CC(=O)O)c2ccccc12,"inconclusive: 70.8 µM [inhibitor, single point]"
5,Cc1ccc(/C=C2/Sc3ccc(C(=O)NCc4ccccn4)cc3NC2=O)cc1,inactive
6,Cc1sc2nc(CN3CCN(c4ccc(O)cc4)CC3)[nH]c(=O)c2c1C,inactive
7,O=C1CCC(=O)N1CO,inactive
8,Cc1ccc(C(=O)O)cc1-c1ccc(/C=C2\SC(=O)N(CC(=O)Nc3ccc4c(c3)OCO4)C2=O)o1,"inconclusive: 44.7 µM [fluorescent, side channel, single point]"
9,Cc1cc(NS(=O)(=O)c2ccc(Nc3nc(-c4sc(NC(=O)c5ccccc5)nc4C)cs3)cc2)no1,"inconclusive: 70.8 µM [inhibitor, single point]"
10,OC(CNC1CCCc2ccccc21)COc1c(Cl)cccc1Cl (configuration not stated),"inconclusive: 25.1 µM [fluorescent, side channel, single point]"
11,C=CCN1C(=O)C(O)(CC(=O)c2ccccn2)c2ccccc21 (configuration not stated),"inconclusive: 5.01 µM [inhibitor, partial curve]"
12,O=C(O)c1cnc(-c2ccccc2)nc1Sc1ccc(Cl)cc1,inactive
13,CC(=O)Nc1ccc(NS(=O)(=O)c2ccccc2)c2ccccc12,"inconclusive: 63.1 µM [fluorescent, side channel, single point]"
14,CNc1ccc2c3c(cccc13)C(=O)N(C)C2=O,"inconclusive: 10 µM [fluorescent, side channel, single point]"
15,CCC(C)C(=O)OCC1(c2ccc(C)cc2OC(=O)C(C)C)CO1 (configuration not stated),"inconclusive: 89.1 µM [quencher, side channel, single point]"
16,COc1ccc2[nH]c(=O)c(C3c4cc(OC)c(OC)cc4CCN3C(=O)c3ccco3)cc2c1 (configuration not stated),"inconclusive: 39.8 µM [fluorescent, side channel, single point]"
17,CCN(CC)CCNC(=O)c1ccc(Sc2ccc(Cl)cc2)c(NC(C)=O)c1,"inconclusive: 39.8 µM [fluorescent, side channel, single point]"
18,CC(C)C(NC(=O)C1CCCCC1)C(=O)N1CCN(c2ccc(F)cc2)CC1 (configuration not stated),"inconclusive: 3.55 µM [inhibitor, full curve, poor fit]"
19,COc1ccc(N/C=C/C(=O)c2sc(-c3ccccc3)nc2C)cc1,"inconclusive: 35.5 µM [fluorescent, side channel, single point]"
20,COc1ccc(NC(=O)c2cc(F)cc(F)c2)cc1Cl,inactive

# Two neighbouring records from above, quoted:
row,Compound,Potency
5,Cc1ccc(/C=C2/Sc3ccc(C(=O)NCc4ccccn4)cc3NC2=O)cc1,inactive
6,Cc1sc2nc(CN3CCN(c4ccc(O)cc4)CC3)[nH]c(=O)c2c1C,inactive
